PubChem BioAssay AID743121 | NCATS, 2013
Assay: 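Partners whose loss is lethal together with topoisomerase I blockade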 (primary screen). Cells: MDA-MB-231 cells, a human breast cancer line. Knock-down reagent: single siRNA against human genes, 20 nM siRNA (0.8 pmol per well). Duration: 120 h (drug added 48 h after transfection, read 72 h later). Treatment: camptothecin 20 nM (about EC30) for 72 h; vehicle 0.1% DMSO in parallel plates. Measurement: 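Cell viability by ATP luminescence (CellTiter-Glo) as % of non-targeting siRNA wells, and the log2 ratio of viability without drug over viability with camptothecin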. Reading the numbers: log2 vehicle/camptothecin viability: higher = stronger sensitisation to camptothecin. Call rule: 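Active genes have an RSA gene-level p-value below 0.001, computed from the ratios of their separate siRNAs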.
The whole screen tested about 26,000 reagents; shown is a part drawn at random. 167 of them (0.63%) were called active. 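Calls are per gene from RSA p-values that are not deposited; an individual active-marked siRNA can sensitise only weakly.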 Unmarked entries are inactive. Further read-outs or replicates are left out here.

MLF1 (GeneID 4291) [SID164375638]
- log2 vehicle/camptothecin viability: 0.135

MLF1 (GeneID 4291) [SID164375639]
- log2 vehicle/camptothecin viability: -0.281

MLF1 (GeneID 4291) [SID164375641]
- log2 vehicle/camptothecin viability: -0.0107

RAD18 (GeneID 56852) [SID164491407]
- log2 vehicle/camptothecin viability: -0.791

RAD18 (GeneID 56852) [SID164491409]
- log2 vehicle/camptothecin viability: -0.601

RAD18 (GeneID 56852) [SID164491412]
- log2 vehicle/camptothecin viability: -0.039

TMPRSS2 (GeneID 7113) [SID164392138]
- log2 vehicle/camptothecin viability: -0.293

TMPRSS2 (GeneID 7113) [SID164392139]
- log2 vehicle/camptothecin viability: 0.148

TMPRSS2 (GeneID 7113) [SID164392142]
- log2 vehicle/camptothecin viability: -0.0991

TMPRSS2 (GeneID 7113) [SID164392143]
- log2 vehicle/camptothecin viability: -0.716

LDHB (GeneID 3945) [SID164373650]
- log2 vehicle/camptothecin viability: -0.38

LDHB (GeneID 3945) [SID164373651]
- log2 vehicle/camptothecin viability: -0.377

LDHB (GeneID 3945) [SID164373653]
- log2 vehicle/camptothecin viability: -0.209

LDHB (GeneID 3945) [SID164373654]
- log2 vehicle/camptothecin viability: -0.173

Continued; the last 2 above are carried over.
LDHB (GeneID 3945) [SID164373653]
- log2 vehicle/camptothecin viability: -0.209

LDHB (GeneID 3945) [SID164373654]
- log2 vehicle/camptothecin viability: -0.173

CELA1 (GeneID 1990) [SID164363063]
- log2 vehicle/camptothecin viability: -0.31

CELA1 (GeneID 1990) [SID164363066]
- log2 vehicle/camptothecin viability: -0.0366

CELA1 (GeneID 1990) [SID164363068]
- log2 vehicle/camptothecin viability: -0.322

CELA1 (GeneID 1990) [SID164363069]
- log2 vehicle/camptothecin viability: -0.168

HERC3 (GeneID 8916) [SID164400758]
- log2 vehicle/camptothecin viability: -0.31

HERC3 (GeneID 8916) [SID164400759]
- log2 vehicle/camptothecin viability: -0.562

HERC3 (GeneID 8916) [SID164400760]
- log2 vehicle/camptothecin viability: -0.166

HERC3 (GeneID 8916) [SID164400761]
- log2 vehicle/camptothecin viability: -0.0416

XPOT (GeneID 11260) [SID164416614]
- log2 vehicle/camptothecin viability: -0.38

XPOT (GeneID 11260) [SID164416615]
- log2 vehicle/camptothecin viability: -0.311

XPOT (GeneID 11260) [SID164416616]
- log2 vehicle/camptothecin viability: -0.215

XPOT (GeneID 11260) [SID164416617]
- log2 vehicle/camptothecin viability: -0.3
